Where a name gives a salt, the structure may show the parent alone. ± gives the standard deviation of the averaged measurements. Some of the results follow. Single values are uncertain here, since repeats match poorly.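 Test systems: triple-negative MDA-MB-231 breast cancer cells and their brain-metastatic MDA-MB-231BRM derivative, each stably carrying empty vector, full-length GLI1 or truncated tGLI1. Viability after 48 h was read by CellTiter-Blue and expressed against 1% DMSO vehicle. A compound was tGLI1-selective if it lowered viability 20% more in tGLI1 cells than in vector and GLI1 cells.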
Columns and labels:
Experiment in all cases: cell viability relative to vehicle (DMSO) control (fraction); higher = more viable cells (less growth inhibition)
Details in all cases: treatment time 48 h
[1] = test system: MDA-MB-231 GLI1
[2] = test system: MDA-MB-231 Vector
[3] = test system: MDA-MB-231 tGLI1
[4] = test system: MDA-MB-231BRM GLI1
[5] = test system: MDA-MB-231BRM Vector
[6] = test system: MDA-MB-231BRM tGLI1

Structure (SMILES) | cell viability ([1]; 0.05 µM) | cell viability ([1]; 0.5 µM) | cell viability ([1]; 5 µM) | cell viability ([2]; 0.05 µM) | cell viability ([2]; 0.5 µM) | cell viability ([2]; 5 µM) | cell viability ([3]; 0.05 µM) | cell viability ([3]; 0.5 µM) | cell viability ([3]; 5 µM) | cell viability ([4]; 0.05 µM) | cell viability ([4]; 0.5 µM) | cell viability ([4]; 5 µM) | cell viability ([5]; 0.05 µM) | cell viability ([5]; 0.5 µM) | cell viability ([5]; 5 µM) | cell viability ([6]; 0.05 µM) | cell viability ([6]; 0.5 µM) | cell viability ([6]; 5 µM)
Cc1cc(F)c(Nc2ncnc3cc(OCc4ccccc4)ccc23)cc1O | 0.909 | 1.15 | 0.599 | 0.994 | 1.12 | 0.825 | 0.915 | 1.13 | 0.568 | 0.931 | 0.984 | 1.06 | 1.03 | 1.04 | 1.05 | 1.05 | 0.96 | 1.09
CN1CC[C@H](c2c(O)cc(O)c3c(=O)cc(-c4ccccc4Cl)oc23)[C@H](O)C1 [Flavopiridol (Alvocidib)] | 0.261 | 0.229 | 0.217 | 0.57 | 0.249 | 0.254 | 0.23 | 0.189 | 0.171 | 1.2 | 1.19 | 0.953 | 1.19 | 1.07 | 0.971 | 0.968 | 0.6 | 0.855
COc1nc(N)nc2c1ncn2[C@@H]1O[C@H](CO)[C@@H](O)[C@@H]1O [Nelarabine (Arranon)] | 1.2 | 1.01 | 1.13 | 1.01 | 1.04 | 1.19 | 1.03 | 1.18 | 1.04 | 0.998 | 0.997 | 0.936 | 1.01 | 1.04 | 1.02 | 1.09 | 1.03 | 1.05
COc1cc2ncnc(Nc3ccc(F)c(Cl)c3)c2cc1OCCCN1CCOCC1 [Gefitinib (Iressa)] | 1.39 | 1.06 | 1.16 | 1.51 | 1.25 | 1.35 | 1.26 | 1.1 | 1.19 | 0.979 | 1 | 0.629 | 0.993 | 0.918 | 0.686 | 0.999 | 0.921 | 0.756
Cc1ccc(NC(=O)c2cccc(N(C)C)c2)cc1NC(=O)c1ccc(O)cc1 | 1.33 | 1.21 | 1.06 | 1.34 | 1.33 | 1.49 | 1.46 | 1.18 | 1.01 | 1.02 | 0.97 | 0.918 | 1.06 | 1.09 | 0.877 | 1.06 | 1.05 | 0.935
CO[C@H]1C[C@@H]2CC[C@@H](C)[C@@](O)(O2)C(=O)C(=O)N2CCCC[C@H]2C(=O)O[C@H]([C@H](C)C[C@@H]2CC[C@@H](OCCO)[C@H](OC)C2)CC(=O)[C@H](C)/C=C(\C)[C@@H](O)[C@@H](OC)C(=O)[C@H](C)C[C@H](C)/C=C/C=C/C=C/1C [Everolimus (RAD001)] | 0.896 ± 0.12 | 0.804 ± 0.35 | 0.716 ± 0.13 | 0.951 ± 0.038 | 0.7 ± 0.21 | 0.561 ± 0.13 | 0.832 ± 0.073 | 0.761 ± 0.33 | 0.573 ± 0.073 | 0.892 ± 0.013 | 0.885 ± 0.041 | 0.764 ± 0.2 | 0.871 ± 0.018 | 0.859 ± 0.035 | 0.825 ± 0.17 | 0.907 ± 0.034 | 0.844 ± 0.056 | 0.789 ± 0.093
C#Cc1cccc(Nc2ncnc3cc(OCCOC)c(OCCOC)cc23)c1 [Erlotinib HCl (OSI-744)] | 1.37 | 1.72 | 1.75 | 1.42 | 1.24 | 1.12 | 1.09 | 1.36 | 1.21 | 0.901 | 0.927 | 0.851 | 0.828 | 0.921 | 0.921 | 0.907 | 0.941 | 0.898
Cc1c(Cn2c(C)nc3c(C(=O)O)cc(N4CCOCC4)cc32)cccc1C(F)(F)F | 1.09 | 1.64 | 1.01 | 0.683 | 0.638 | 0.47 | 0.62 | 0.769 | 0.629 | 0.503 | 0.531 | 0.5 | 0.602 | 0.481 | 0.48 | 0.803 | 0.704 | 0.797
COc1cc2nccc(Oc3ccc(NC(=O)Nc4cc(C)on4)c(Cl)c3)c2cc1OC [Tivozanib (AV-951)] | 1.2 | 1.15 | 0.417 | 0.97 | 1.14 | 0.373 | 1.05 | 1.08 | 0.425 | 1.03 | 1.08 | 0.713 | 1.13 | 0.914 | 0.46 | 0.934 | 1.07 | 0.68
CCc1cc(Nc2nccc(-c3c(-c4ccc(OC)c(C(=O)Nc5c(F)cccc5F)c4)nc4ccccn34)n2)c(OC)cc1N1CCC(N2CCN(S(C)(=O)=O)CC2)CC1 | 0.957 | 1.44 | 0.855 | 1.1 | 1.2 | 0.874 | 1.41 | 1.37 | 0.833 | 0.907 | 0.881 | 0.844 | 0.924 | 0.842 | 0.785 | 0.936 | 0.846 | 0.773
CNC(=O)c1ccccc1Sc1ccc2c(/C=C/c3ccccn3)n[nH]c2c1 [Axitinib] | 1.09 ± 0.18 | 1.47 ± 0.79 | 0.811 ± 0.14 | 1.15 ± 0.42 | 0.9841 ± 0.005 | 0.618 ± 0.041 | 0.89 ± 0.028 | 1 ± 0.061 | 0.633 ± 0.14 | 0.952 ± 0.13 | 0.889 ± 0.072 | 0.779 ± 0.061 | 0.91 ± 0.026 | 0.91 ± 0.074 | 0.718 ± 0.059 | 1.01 ± 0.12 | 0.907 ± 0.12 | 0.729 ± 0.15
CN1CCN(S(=O)(=O)c2ccc(-c3cnc(N)c(C(=O)Nc4cccnc4)n3)cc2)CC1 | 1.34 | 1.37 | 0.779 | 0.808 | 0.857 | 0.708 | 1.38 | 1.29 | 0.974 | 1.19 | 1.03 | 1.04 | 1 | 1.09 | 1.04 | 1.09 | 1.05 | 1
CC(C)c1nc(CN(C)C(=O)N[C@H](C(=O)N[C@@H](Cc2ccccc2)C[C@H](O)[C@H](Cc2ccccc2)NC(=O)OCc2cncs2)C(C)C)cs1 [Ritonavir] | 1.42 | 1.05 | 1.15 | 1.58 | 1.21 | 1.24 | 1.32 | 1.09 | 1.07 | 1.01 | 0.977 | 0.972 | 0.988 | 0.957 | 1.01 | 1.05 | 0.975 | 0.992
CS(=O)(=O)CCNCc1ccc(-c2ccc3ncnc(Nc4ccc(OCc5cccc(F)c5)c(Cl)c4)c3c2)o1 [Lapatinib Ditosylate (Tykerb)] | 1.07 | 1.08 | 1.11 | 1.12 | 1.15 | 1.27 | 0.951 | 1.15 | 1.01 | 0.958 | 0.949 | 0.654 | 0.984 | 0.895 | 0.757 | 0.919 | 0.967 | 0.744
Cc1ccc(F)c(NC(=O)Nc2ccc(-c3cccc4[nH]nc(N)c34)cc2)c1 [Linifanib (ABT-869)] | 0.758 | 1.17 | 0.0344 | 0.551 | 0.693 | 0.113 | 0.48 | 1.01 | 0.0569 | 0.939 | 1.04 | 0.831 | 0.869 | 0.902 | 0.845 | 1 | 0.961 | 0.8
COc1ccc(CNC(=O)Nc2ncc([N+](=O)[O-])s2)cc1 | 1.15 | 1.76 | 1.18 | 0.592 | 0.648 | 0.597 | 0.684 | 0.694 | 0.758 | 0.5 | 0.527 | 0.428 | 0.558 | 0.458 | 0.412 | 0.63 | 0.666 | 0.655
CNC(=O)c1cccc(-c2ccc3c(N4CCOC[C@@H]4C)nc(N4CCOC[C@@H]4C)nc3n2)c1 | 0.972 | 0.549 | 0.244 | 0.96 | 0.924 | 0.226 | 1.07 | 0.502 | 0.366 | 0.914 | 0.789 | 0.537 | 0.92 | 0.909 | 0.499 | 0.965 | 0.764 | 0.473
C=CC(=O)Nc1cccc(Nc2nc(Nc3ccc(Oc4ccnc(C(=O)NC)c4)cc3)ncc2F)c1 | 1.1 | 1.26 | 0.616 | 0.825 | 0.893 | 0.599 | 1.02 | 1.16 | 0.803 | 0.853 | 0.936 | 0.688 | 0.986 | 0.949 | 0.642 | 0.942 | 1.01 | 0.74
C[C@]1(O)C[C@@H](c2nc(-c3ccc4ccc(-c5ccccc5)nc4c3)c3c(N)nccn32)C1 [OSI-906 (Linsitinib)] | 1.46 | 1.41 | 1.03 | 1.29 | 1.2 | 0.699 | 1.24 | 1.35 | 0.735 | 0.922 | 1 | 0.982 | 0.927 | 0.985 | 0.9 | 0.987 | 0.891 | 0.91
Cc1ccc([N+](=O)[O-])cc1S(=O)(=O)N(C)/N=C/c1cnc2ccc(Br)cn12 | 0.134 | 0.141 | -0.0566 | 0.364 | 0.222 | 0.0418 | 0.181 | 0.131 | -0.0732 | 1.47 | 1.03 | 0.346 | 0.624 | 0.987 | 0.625 | 1.08 | 0.551 | 0.557
COc1ccc(-c2ccc3c(N4CCOC[C@@H]4C)nc(N4CCOC[C@@H]4C)nc3n2)cc1CO | 0.769 | 0.342 | 0.339 | 1.22 | 0.42 | 0.379 | 0.827 | 0.448 | 0.362 | 0.983 | 0.916 | 0.607 | 1.04 | 0.796 | 0.639 | 0.513 | 0.811 | 0.565
CN1CCCN(C(=O)c2cccc(-c3ccc(/C=C4/C(=O)Nc5ccc(Cl)cc54)o3)c2)CC1 | 1.36 | 1 | -0.193 | 1.14 | 0.947 | -0.178 | 1.29 | 0.909 | -0.207 | 0.972 | 0.898 | 0.5 | 1.03 | 0.923 | 0.0767 | 0.989 | 0.958 | -0.00346
Oc1ccc(Nc2nc(-c3ccc(Cl)cc3)cs2)cc1 | 1.47 | 1.67 | 0.494 | 1.37 | 1.53 | 0.842 | 1.43 | 1.43 | 0.835 | 1.03 | 0.988 | 0.677 | 1.19 | 1.05 | 0.704 | 1.01 | 1.01 | 0.621
Nc1ccc(C(=O)Nc2cccc(-c3nc(N4CCOCC4)c4oc5ncccc5c4n3)c2)cn1 | 1.1 | 1.23 | 0.368 | 0.626 | 1.13 | 0.359 | 0.507 | 1.07 | 0.306 | 1.1 | 1.04 | 0.746 | 0.596 | 0.896 | 0.722 | 0.952 | 0.963 | 0.715
Cc1ccc(S(=O)(=O)/C=C/C#N)cc1 | 1.08 | 1.42 | 0.149 | 1.14 | 1.43 | 0.815 | 1.17 | 1.39 | 0.164 | 1.08 | 0.923 | 0.786 | 1.08 | 0.991 | 0.874 | 1.06 | 0.909 | 0.755

Whole records from above. Order of values: cell viability ([1]; 0.05 µM)	cell viability ([1]; 0.5 µM)	cell viability ([1]; 5 µM)	cell viability ([2]; 0.05 µM)	cell viability ([2]; 0.5 µM)	cell viability ([2]; 5 µM)	cell viability ([3]; 0.05 µM)	cell viability ([3]; 0.5 µM)	cell viability ([3]; 5 µM)	cell viability ([4]; 0.05 µM)	cell viability ([4]; 0.5 µM)	cell viability ([4]; 5 µM)	cell viability ([5]; 0.05 µM)	cell viability ([5]; 0.5 µM)	cell viability ([5]; 5 µM)	cell viability ([6]; 0.05 µM)	cell viability ([6]; 0.5 µM)	cell viability ([6]; 5 µM)
Cc1cc(F)c(Nc2ncnc3cc(OCc4ccccc4)ccc23)cc1O is entered as 0.909	1.15	0.599	0.994	1.12	0.825	0.915	1.13	0.568	0.931	0.984	1.06	1.03	1.04	1.05	1.05	0.96	1.09
C#Cc1cccc(Nc2ncnc3cc(OCCOC)c(OCCOC)cc23)c1 [Erlotinib HCl (OSI-744)] is entered as 1.37	1.72	1.75	1.42	1.24	1.12	1.09	1.36	1.21	0.901	0.927	0.851	0.828	0.921	0.921	0.907	0.941	0.898

Source: the supplement of paper PMC9454738
